# Measurements reported in PubChem BioAssay AID485314 (National Center for Advancing Translational Sciences (NCATS), 2010).
# Hit rate of the full screen: of about 340,000 compounds, about 4,500 (1.3%) were called active. Inconclusive means that the source gave no clear call. Such entries were picked first, then a sample of the others. Calls follow the shape of the dose curve; as a rule, active = well fitted inhibition curve with a large enough effect; inconclusive = small, poorly fitted or top-dose-only effect, or another doubt; inactive = no such curve, though single readings can be large or run the other way. Potencies beside an inconclusive call are fits to weak or partial responses and may not hold up.
# Target: DNA polymerase beta (Homo sapiens) (UniProt P06746)
# Experiment: qHTS Assay for Inhibitors of DNA Polymerase Beta
# Details: Pol beta primer extension/strand displacement, fluorescence kinetic; activity change, negative = inhibition: at 114 µM (top of the series)
# Outline: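 Homogeneous kinetic assay of primer extension and strand displacement by 10 nM Pol beta, preincubated 15 min at room temperature with compound before 50 nM substrate (final) was added. Read at 0 and 10 min; four-parameter Hill fit.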
# % is scaled to controls: 0 for no effect and ±100 for the full control effect; potency is read from the fitted curve at half-maximal effect.
SMILES,Potency,"activity change, negative = inhibition"
O=C(CCc1nc2ccccc2c(=O)[nH]1)Nc1ccc(F)c([N+](=O)[O-])c1,"inconclusive: 28.2 µM [inhibitor, partial curve]",
Cc1scc(-c2n[nH]c(=S)n2C(C)c2ccccc2)c1C (configuration not stated),"inconclusive: 63.1 µM [inhibitor, single point]",
Cc1cc(C)nc(/N=C(\N)Nc2ccc(OCc3ccccc3)cc2)n1,"inconclusive: 0.891 µM [inhibitor, full curve, poor fit]",
O=C(O)C1C2C=CC(C2)C1C(=O)NCCc1ccncc1 (configuration not stated),active: 50.1 µM,
O=C(Nc1ccccc1C(=O)Nc1ccncc1)c1ccccc1,"inconclusive: 25.1 µM [inhibitor, single point]",
O=C(O)c1ccc[nH]c1=S,inactive,
CCn1c(CN2CCCCC2)nc2cc(NC(=O)COc3cc(C)ccc3C(C)C)ccc21,"inconclusive: 89.1 µM [inhibitor, single point]",
CC(=O)NCCc1nc2ccccc2n1CCc1ccccc1,"inconclusive: 0.126 µM [inhibitor, full curve, poor fit]",
Cc1cnc(C(=O)Nc2nccs2)cn1,"inconclusive: 31.6 µM [inhibitor, single point]",
CCOC(=O)CSc1nc(N)c(C#N)c(-c2ccc(OC)cc2)c1C#N,inactive,
CCOC(=O)c1sc(NC(=O)C2C3C=CC(C3)C2C(=O)O)nc1C (configuration not stated),"inconclusive: 22.4 µM [inhibitor, full curve]",
O=C(Nc1ccc2c(c1)OCO2)c1ccc(=O)[nH]n1,,inconclusive: -30.3% [inhibitor]
CCNc1ccc2noc3c2c1C(=O)c1ccccc1-3,active: 20 µM,
Cc1ccccc1SCC(=O)Nc1ccc(N2CCOCC2)cc1,"inconclusive: 17.8 µM [inhibitor, full curve]",
CCOc1ccc2[nH]c(C(=O)N/N=C/c3ccc(OC)cc3)cc2c1,inactive,
Cc1ccc(C(=O)OCC(=O)c2ccc(Cl)s2)s1,"inconclusive: 17.8 µM [inhibitor, full curve]",
O=C(Nc1ccc(F)cc1F)c1cc2ccc3cccnc3c2[nH]1,active: 17.8 µM,
Cc1ccc(-c2cc(C(=O)NN3CCOCC3)c3cc(Br)ccc3n2)o1,"inconclusive: 56.2 µM [inhibitor, partial curve, poor fit]",
CCOC(=O)/C=C1\CN(Cc2cc(OC)c(OC)c(OC)c2)S(=O)(=O)c2ccccc21,"inconclusive: 39.8 µM [inhibitor, full curve]",
COc1cccc(CN(C)C(=O)c2ccc3nccnc3c2)c1,active: 39.8 µM,
CC(C)CCNC(=O)c1ccc(Cn2c(=S)[nH]c3ccccc3c2=O)cc1,"inconclusive: 70.8 µM [inhibitor, single point]",
COc1ccc(/C=C2\SC(N3CCc4ccccc4C3)=NC2=O)cc1OC,"inconclusive: 25.1 µM [inhibitor, partial curve, poor fit]",
COc1ccccc1NC(=O)CSc1nc(N)c(-c2ccccc2)c(=O)[nH]1,inactive,
COc1ccc(-c2nnc(SCC(=O)Nc3cc(C)on3)n2N)cc1OC,"inconclusive: 89.1 µM [inhibitor, single point]",

SMILES,Potency,"activity change, negative = inhibition"
COc1cc(/C=N\NC(=O)c2ccc(Cn3nc([N+](=O)[O-])c(Cl)c3C)o2)ccc1O,inactive,
CCOC(=O)c1c(C)[nH]c(CCC(=O)Nc2ccccc2OCC)c1C,"inconclusive: 70.8 µM [inhibitor, single point]",
CCOC(=O)CSc1nc2c(c(=O)n1-c1ccc(OC)cc1)SCC2,"inconclusive: 44.7 µM [inhibitor, partial curve, poor fit]",
O=C(NCc1nc2ccccc2[nH]1)c1ccc(Cl)c(S(=O)(=O)N2CCCC2)c1,"inconclusive: 28.2 µM [inhibitor, partial curve]",
Cc1ccc(C2=NN=C(NC(=O)CSc3nnc4c5ccccc5n(C)c4n3)SC2)cc1,active: 35.5 µM,
CCNC(=S)Nc1ccc(N2CCCCC2)cc1,"inconclusive: 0.158 µM [inhibitor, full curve, poor fit]",
CC(C)(C)NCC(O)COc1nsnc1N1CCOCC1 (configuration not stated),inactive,
CCC1(C)COC2(OC1)C(=O)Nc1ccccc12 (configuration not stated),"inconclusive: 6.31 µM [inhibitor, full curve, poor fit]",
CCN(CCCNC(=O)CSc1cc(=O)n(C)c2cc(Cl)ccc12)c1ccccc1,"inconclusive: 0.631 µM [inhibitor, full curve, poor fit]",
COc1ccc(F)cc1S(=O)(=O)NCc1ccccc1,inactive,
COc1ccc(C(=O)N/N=C/c2ccc(OC)c(CN3CCCc4ccccc43)c2)cc1,active: 20 µM,
NC(N)=Nc1nc(-c2ccccc2)c2cc(F)ccc2n1,"inconclusive: 20 µM [inhibitor, full curve]",
O=C(/C=C/c1ccc([N+](=O)[O-])cc1)c1cccs1,"inconclusive: 89.1 µM [inhibitor, single point]",
Clc1ccccc1OCc1nn2c(-c3ccncc3)nnc2s1,"inconclusive: 28.2 µM [inhibitor, full curve]",
CCOc1cc(C2C(C#N)=C(N)Oc3n[nH]c(-c4ccncc4)c32)cc([N+](=O)[O-])c1O (configuration not stated),"inconclusive: 63.1 µM [inhibitor, single point]",
CC(C)NC(=O)c1ccc(CS(=O)(=O)c2ccc(Br)cc2)o1,"inconclusive: 89.1 µM [inhibitor, single point]",
CC(=O)Nc1ccccc1OCc1cc(=O)n2c(C)csc2n1,inactive,
NC1CCN(c2c(F)cc3c(=O)c(C(=O)O)cn(C4CC4)c3c2Cl)C1 (configuration not stated),"inconclusive: 31.6 µM [inhibitor, full curve]",
O=C1c2ccccc2C(=O)N1OS(=O)(=O)c1ccc(F)cc1,inactive,
O=[N+]([O-])c1ccc(Nc2ccccc2O)c2nonc12,"inconclusive: 10 µM [inhibitor, partial curve]",
CCc1ccc(OCC(=O)Nc2ccc(-c3nc4ccccc4o3)c(O)c2)cc1,active: 2.24 µM,
Cc1cc(-c2ccc(S(=O)(=O)Nc3cccc(C(F)(F)F)c3)s2)on1,inactive,
CC(C)CNC(=O)COC(=O)c1c2c(nc3ccccc13)CCC2,active: 39.8 µM,
Cc1ccc(N=Nc2[nH]c3ccccc3c2O)cc1,"inconclusive: 89.1 µM [inhibitor, single point]",

# Fetched by compound from the list above, six records:
SMILES,Potency,"activity change, negative = inhibition"
CCC1(C)COC2(OC1)C(=O)Nc1ccccc12 (configuration not stated),"inconclusive: 6.31 µM [inhibitor, full curve, poor fit]",
CCN(CCCNC(=O)CSc1cc(=O)n(C)c2cc(Cl)ccc12)c1ccccc1,"inconclusive: 0.631 µM [inhibitor, full curve, poor fit]",
O=C(O)c1ccc[nH]c1=S,inactive,
Cc1ccc(C(=O)OCC(=O)c2ccc(Cl)s2)s1,"inconclusive: 17.8 µM [inhibitor, full curve]",
Cc1scc(-c2n[nH]c(=S)n2C(C)c2ccccc2)c1C (configuration not stated),"inconclusive: 63.1 µM [inhibitor, single point]",
COc1ccc(C(=O)N/N=C/c2ccc(OC)c(CN3CCCc4ccccc43)c2)cc1,active: 20 µM,

# Later entries.

SMILES,Potency,"activity change, negative = inhibition"
C=CCN(c1ccccc1)S(=O)(=O)c1ccc2[nH]cc(C(=O)NCCOC)c(=O)c2c1,"inconclusive: 70.8 µM [inhibitor, partial curve]",
Cc1cc(C)nc(Nc2nc3ccccc3o2)n1,inactive,
CCN(CC)CC(=O)Nc1cccc2c1C(=O)c1ccccc1C2=O,inactive,
CC(C)Oc1ccc(C(=O)Nc2c3c(nn2-c2ccccc2)CS(=O)(=O)C3)cc1,"inconclusive: 35.5 µM [inhibitor, partial curve]",
Cc1ccc(-n2ncc(C(=O)NCc3ccc4c(c3)OCO4)c2C2CCN(C(=O)OC(C)(C)C)CC2)cc1C,"inconclusive: 79.4 µM [inhibitor, single point]",
COc1cc(/C=C2\SC(=O)N(c3ccccc3Cl)C2=O)cc([N+](=O)[O-])c1O,active: 89.1 µM,
Cc1ccc(C)c(N/C(N)=N/c2nc(C)cc(C)n2)c1,inactive,
COc1cc(C(=O)NCC(C)C)c([N+](=O)[O-])cc1OC,"inconclusive: 100 µM [inhibitor, single point]",
CC1=C(c2ccc(C)c(C)c2)S(=O)(=O)N=C1N1CCN(c2cccc(C)c2)C(C)C1 (configuration not stated),inactive,
CC(C)Cc1nn2c(=O)cc(COC(=O)c3cccc(NC(=O)c4cccs4)c3)nc2s1,inactive,
CC(C)n1c(S(=O)(=O)O)nc2ccccc21,inactive,
O=c1c2c(nc3nc(CCc4ccccc4)[nH]n13)CCC2,"inconclusive: 3.16 µM [inhibitor, full curve, poor fit]",
COc1cc(-c2cc(C(=O)Nc3ccc(S(N)(=O)=O)cc3)c3ccccc3n2)cc(OC)c1OC,"inconclusive: 89.1 µM [inhibitor, single point]",
Cc1ccc(OCCN2C(=O)C(=O)c3cc(C)ccc32)cc1,"inconclusive: 79.4 µM [inhibitor, single point]",
Cc1cc(C)c(NC(=O)C2CCN(C(=O)N3CC(C)Oc4ccc(Cl)cc43)CC2)c(C)c1 (configuration not stated),inactive,
COC(=O)CC/C(=N/Nc1ccc(Cl)c(Cl)c1)C(=O)OC,"inconclusive: 31.6 µM [inhibitor, single point]",
COc1ccc(CCN2C(=O)CC(C(C)c3ccccc3)C2=O)cc1OC (configuration not stated),"inconclusive: 89.1 µM [inhibitor, single point]",
Cc1oc(-c2ccc(C(=O)NCCCOC(C)C)cc2)nc1CS(=O)(=O)c1ccccc1,"inconclusive: 100 µM [inhibitor, single point]",
C/C(=N\NC(=O)Cn1cc([N+](=O)[O-])cn1)c1ccc(O)cc1,,inconclusive: -33.6% [inhibitor]
COc1ccc(-c2ccc(SCC(=O)N3c4ccccc4CC3C)nn2)cc1OC (configuration not stated),"inconclusive: 79.4 µM [inhibitor, single point]",
COC(=O)c1sc(NC(=O)c2ccc(Cn3cc(Cl)cn3)o2)c(C#N)c1C,"inconclusive: 31.6 µM [inhibitor, full curve]",
Cc1cc(Nc2ccccc2F)n2nc(Cc3ccc(Cl)cc3)nc2n1,"inconclusive: 17.8 µM [inhibitor, partial curve, poor fit]",
O=c1cc(CSc2nnc(NC3CCCCC3)s2)nc2sccn12,inactive,
COC1=CCC2([N+](=O)[O-])CN(CCO)CC1([N+](=O)[O-])C2 (configuration not stated),active: 0.199 µM,
